# Assay results from US7906105B1, “Zinc-activated contrast agents” (Northwestern University, priority 2006, dated 2011).
# Legend:
# [1] = Relaxivity measurements in the absence and presence of ZnCl2; assay type: physicochemical
# Experimental: Left: Relaxivity of Compound 1 in the presence of XCl2, where X=Zn, Ca, and Mg. All solutions were made in 100 mM KCl/100 mM HEPES at ph=7.4. Right: Relaxivity of Zn-1, 3:1 (Zn:Gd), following titration of EDTA.
# To test the binding ability of the acetate ligands to Zn(II), relaxivity measurements of 1 were measured in the absence and presence of ZnCl2. The relaxitivity of 1 in HEPES buffer without zinc was 2.34 mM^−1 s^−1, as is typical for small molecule contrast agents for which q=0 (8). […] As ZnCl2 was added, the relaxivity increased to 5.3 mM^−1 s^−1 indicative of a q=1 complex (See FIG. 3, left). Similar studies were conducted using MgCl2 and CaCl2 to test for selectivity of the ligand for zinc over other dications known to have higher cellular concentrations and which have similar binding affinities for carboxylic acids. […] A competitive binding assay gave a dissociation constant of 2.38×10^−4 M for the Gd(III)-Zn(II) complex.
# After 1 was left to equilibrate at 37° C. for 3 days with an excess of zinc, a relaxivity of 9.2 mM^−1 s^−1 was measured, indicating the species has a value of q=2. This measurement corresponds well to a structure proposed by embodiments of the present invention in which the pendant ligands have left the gadolinium for the zinc, leaving two open coordination sites for water to bind. […] Although an understanding of the mechanism is not necessary to practice the present invention and the present invention is not limited to any particular mechanism of action, in some embodiments, this is due to sequestration of Zn(II) by EDTA which leaves the carboxylic acids available to bind to Gd(III) and close the coordination sites (See FIG. 3, right). Adding excess EDTA had no effect on the relaxivity, providing that the Gd(III) ions are not sequestered by EDTA as expected given the high binding constant (˜10^16) for Gd-EDTA for which q=1.
# Proton relaxivity measurements on Compound 1 were also performed while titrating with increasing amounts of Zn(II) up to 1:1.4 (Gd: Zn) equivalents. […]
# [2] = Nuclear magnetic relaxation dispersion (NMRD) profiles; assay type: physicochemical
structure (smiles),measurement,setting,value
Cc1cccc(OCCCN2CCN(CC(=O)[O-])CCN(CC(=O)[O-])CCN(CC(=O)[O-])CC2)c1N(CC(=O)[O-])CC(=O)[O-].[Gd+3] [Compound 1],q (number of bound water molecules) indicated by relaxivity,"[1]; 37° C., 3 days, excess of zinc",2
same,q (number of bound water molecules) indicated by relaxivity,[1]; ZnCl2 added,1
same,Zn(II) equivalents at which relaxation rate enhancement plateaus,[1]; titration with Zn(II) up to 1:1.4 (Gd:Zn),1.2-1.4 equivalents
same,coordinated water q,"[2]; Zn(II)-coordinated complex, SBM theory",1.2±0.3
same,fraction of coordinated water q (upper limit),"[2]; absence of Zn(II), water protons at ~3.1 Å",≤ 0.3±0.2
